According to PMC10621219:
Results are given in words; binding and its absence hold for the method and conditions named. Binding seen in cells or lysates may run through a third protein. Some results given as binding are weak or reduced against the parent protein; the word gives no strength. Where a sequence is shown, tags or fusion partners need not be part of it.

Sequences of proteins named here, by UniProt entry; tags and fusion partners are left off.
UniProt Q8VEK3: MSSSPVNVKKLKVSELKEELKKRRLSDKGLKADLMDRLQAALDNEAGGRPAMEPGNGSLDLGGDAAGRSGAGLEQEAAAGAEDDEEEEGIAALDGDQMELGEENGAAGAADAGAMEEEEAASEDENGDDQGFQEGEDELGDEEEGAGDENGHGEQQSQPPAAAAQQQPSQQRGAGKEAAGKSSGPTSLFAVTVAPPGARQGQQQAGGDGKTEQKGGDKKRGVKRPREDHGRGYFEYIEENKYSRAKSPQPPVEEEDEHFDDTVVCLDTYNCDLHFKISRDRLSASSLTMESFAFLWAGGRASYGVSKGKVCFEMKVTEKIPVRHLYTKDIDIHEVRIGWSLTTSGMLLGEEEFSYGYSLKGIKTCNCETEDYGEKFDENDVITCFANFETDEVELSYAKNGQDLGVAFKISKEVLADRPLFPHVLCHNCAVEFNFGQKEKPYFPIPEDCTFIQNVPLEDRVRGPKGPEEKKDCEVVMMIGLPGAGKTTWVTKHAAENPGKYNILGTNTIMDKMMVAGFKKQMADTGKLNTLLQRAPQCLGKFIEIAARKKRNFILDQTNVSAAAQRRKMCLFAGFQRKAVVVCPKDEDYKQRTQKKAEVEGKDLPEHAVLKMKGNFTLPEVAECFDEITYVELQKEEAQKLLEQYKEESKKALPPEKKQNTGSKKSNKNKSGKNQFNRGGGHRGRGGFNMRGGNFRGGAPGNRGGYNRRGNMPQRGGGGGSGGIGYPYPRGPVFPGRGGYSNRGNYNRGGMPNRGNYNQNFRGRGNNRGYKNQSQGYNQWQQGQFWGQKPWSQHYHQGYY

Target: T1, Flag-tagged FAM171B, overexpressed in MB49 cells (UniProt Q14CH0)
T1 sequence: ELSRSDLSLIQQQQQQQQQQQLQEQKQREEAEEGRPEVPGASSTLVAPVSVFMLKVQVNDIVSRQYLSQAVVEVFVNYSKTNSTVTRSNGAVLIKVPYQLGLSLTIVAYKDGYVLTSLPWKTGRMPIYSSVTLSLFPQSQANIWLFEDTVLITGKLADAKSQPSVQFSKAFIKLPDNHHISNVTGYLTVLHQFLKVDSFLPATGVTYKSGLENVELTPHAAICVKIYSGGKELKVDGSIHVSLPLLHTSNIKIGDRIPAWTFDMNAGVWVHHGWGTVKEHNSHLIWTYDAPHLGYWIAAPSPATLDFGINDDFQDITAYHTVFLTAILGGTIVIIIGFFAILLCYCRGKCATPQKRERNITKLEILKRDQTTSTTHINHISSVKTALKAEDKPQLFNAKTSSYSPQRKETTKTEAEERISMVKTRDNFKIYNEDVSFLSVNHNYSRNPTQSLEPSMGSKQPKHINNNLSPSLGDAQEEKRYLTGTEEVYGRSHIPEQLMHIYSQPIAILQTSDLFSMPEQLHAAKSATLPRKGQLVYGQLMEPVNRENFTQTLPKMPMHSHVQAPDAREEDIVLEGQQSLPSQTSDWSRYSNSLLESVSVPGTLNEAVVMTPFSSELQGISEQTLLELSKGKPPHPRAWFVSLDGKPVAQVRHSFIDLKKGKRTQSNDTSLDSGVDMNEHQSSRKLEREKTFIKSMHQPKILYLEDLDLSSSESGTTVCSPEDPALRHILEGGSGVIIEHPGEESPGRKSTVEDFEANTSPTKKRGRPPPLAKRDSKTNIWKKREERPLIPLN
Assay: co-IP; MB49 cells co-transfected with Flag-tagged FAM171B and HA-tagged vimentin or HNRNPU; immunoprecipitation with anti-DYKDDDDK beads and anti-HA beads; western blot with anti-Flag and anti-HA antibodies

binding: binds
Substance: HA-tagged HNRNPU, overexpressed in MB49 cells (from UniProt Q8VEK3 1-800)
